# Experimental data published in US9982152B2, “Active energy ray curable composition, cured product, composition storage container, two-dimensional or three-dimensional image forming apparatus, and two-dimensional or three-dimensional image forming method” (Ricoh Company, Ltd., priority 2016, dated 2018).
# Some entries share one result that the patent states for a list of compounds.
# Assay: LLNA (Local Lymph Node Assay), SI (Stimulus Index)
# Format: in vivo
# Details: methacrylate monomers stated in text to have SI equal to 3 or less
# Text: In the present disclosure, compounds having skin sensitization potential refer to those determined to be positive in a skin sensitization test. Hereinafter, such compounds may also be referred to as “skin-sensitizing compounds” or “skin sensitizers”. The skin sensitization test is not limited to a specific test. As an example of the skin sensitization test, LLNA (Local Lymph Node Assay) is known that evaluates the degree of sensitization potential by SI (Stimulus Index). SI of 3 or more is determined to be positive.
# Skin sensitization information described in Table 1 was obtained from SDSs available in Japan or other countries. SI (determined by LLNA) values described in Table 1 were measured according to a method described in JP-2012-140593-A.
row,Molecule,SI value
1,"C=C(C)C(=O)OCC(C)(C)COC(=O)C(=C)C [(A-5), Neopentyl glycol dimethacrylate]",≤ 3
2,C=C(C)C(=O)OCCCCCC [n-hexyl methacrylate],≤ 3
3,C=C(C)C(=O)OCCCCC [n-pentyl methacrylate],≤ 3
4,C=C(C)C(=O)OC(C)(C)C [t-butyl methacrylate],≤ 3
5,C=C(C)C(=O)OCC(CC)(COC(=O)C(=C)C)COC(=O)C(=C)C [trimethylolpropane trimethacrylate],≤ 3
6,polyethylene glycol (400) dimethacrylate,≤ 3
7,polyethylene glycol (600) dimethacrylate,≤ 3
